The values that follow come from publication PMC3930858.

Assay [1] addresses T1, AKIN10-Venus^N (Arabidopsis thaliana) (UniProt Q38997).
T1 sequence: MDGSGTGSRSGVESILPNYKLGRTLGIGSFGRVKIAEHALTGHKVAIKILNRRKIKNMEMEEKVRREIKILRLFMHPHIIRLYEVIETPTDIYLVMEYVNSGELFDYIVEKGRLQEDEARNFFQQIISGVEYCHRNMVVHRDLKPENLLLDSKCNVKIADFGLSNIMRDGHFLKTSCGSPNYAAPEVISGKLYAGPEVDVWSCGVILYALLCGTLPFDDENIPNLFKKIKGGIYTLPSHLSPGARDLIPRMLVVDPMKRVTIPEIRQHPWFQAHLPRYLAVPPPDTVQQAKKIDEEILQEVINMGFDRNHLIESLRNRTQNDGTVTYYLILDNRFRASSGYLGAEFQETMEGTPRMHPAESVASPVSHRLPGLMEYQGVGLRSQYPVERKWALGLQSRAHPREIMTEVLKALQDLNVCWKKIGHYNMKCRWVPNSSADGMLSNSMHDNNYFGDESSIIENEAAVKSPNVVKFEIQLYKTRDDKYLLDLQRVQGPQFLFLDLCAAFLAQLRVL
Kind of assay: split reporter; BiFC with Venus^N and Venus^C fusions under the CaMV35S promoter, transient expression in N. benthamiana leaves, confocal microscopy 48 h post infiltration.

The target in assay [2] is T2, AKIN11-Venus^N (Arabidopsis thaliana) (UniProt P92958).
T2 sequence: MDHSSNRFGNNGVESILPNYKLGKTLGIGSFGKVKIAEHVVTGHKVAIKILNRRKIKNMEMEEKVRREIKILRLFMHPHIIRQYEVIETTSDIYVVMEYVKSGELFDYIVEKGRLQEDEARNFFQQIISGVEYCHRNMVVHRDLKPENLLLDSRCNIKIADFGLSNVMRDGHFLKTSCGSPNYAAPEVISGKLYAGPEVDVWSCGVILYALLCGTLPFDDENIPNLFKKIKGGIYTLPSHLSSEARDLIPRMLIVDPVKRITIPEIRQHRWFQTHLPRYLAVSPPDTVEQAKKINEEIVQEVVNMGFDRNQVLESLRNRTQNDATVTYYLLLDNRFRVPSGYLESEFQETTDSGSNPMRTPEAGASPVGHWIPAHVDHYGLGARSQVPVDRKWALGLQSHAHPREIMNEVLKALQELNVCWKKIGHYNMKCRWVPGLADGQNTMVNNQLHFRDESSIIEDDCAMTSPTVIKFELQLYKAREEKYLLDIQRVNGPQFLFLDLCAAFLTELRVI
Described as above.

In assay [3] the target is T3, SnRK1.1/AKIN10 (Arabidopsis thaliana) (UniProt Q38997).
T3 sequence: T1 sequence
Kind of assay: two-hybrid; direct test by cotransformation of GAL4 DNA-binding domain and activation domain plasmids in yeast strain Y190; growth on medium lacking Leu, Trp and His with 25 mM 3-amino-triazole, 30°C, 3 days; lacZ activity.

For assay [4], the target named is T4, SnRK1.2/AKIN11 (Arabidopsis thaliana) (UniProt P92958).
T4 sequence: T2 sequence
Described as above.

No constants are given. Whether binding was seen depends on the method and setting. Binding can be weak; no strength is given. For part of these data: Binding seen in cells or lysates may run through a third protein.

For DUF581-6-Venus^C (Arabidopsis thaliana), the binding result in assay [1] and in assay [2] was “binds” in each case. With DUF581-10 (Arabidopsis thaliana), the binding entry in assay [3] and in assay [4] was “binds” throughout. Take DUF581-6 (Arabidopsis thaliana): the binding result in assay [3] and in assay [4] was “binds” throughout. Take DUF581-5 (Arabidopsis thaliana): the binding result in assay [3] and in assay [4] was “binds” throughout. On to “cytosolic fructose-1,6-bisphosphatase (FBPase) (enzyme)”, for which the binding result in assay [1] and in assay [2] was “no binding” throughout. On to DUF581-17 (Arabidopsis thaliana), for which the binding entry in assay [3] and in assay [4] was “binds” each time. As for DUF581-8 (Arabidopsis thaliana), the binding result in assay [3] and in assay [4] was “binds” throughout. As for DUF581-16 (Arabidopsis thaliana), the binding result in assay [3] and in assay [4] was “binds” in each case. Consider “DUF581-1 deletion construct comprising amino acids 138-192 (Arabidopsis thaliana) (domain or fragment)”, for which the binding result in assay [3] is “binds”. For DUF581-2 (Arabidopsis thaliana), the binding result in assay [3] and in assay [4] was “binds” throughout. Consider DUF581-14 (Arabidopsis thaliana), for which the binding result in assay [3] and in assay [4] was “binds” each time. Take DUF581-13 (Arabidopsis thaliana): the binding result in assay [3] and in assay [4] was “binds” in each case.

Turning to DUF581-12 (Arabidopsis thaliana), the binding entry in assay [3] and in assay [4] was “binds” in each case. On to DUF581-1 (Arabidopsis thaliana), for which the binding result in assay [3] and in assay [4] was “binds” each time.
